# Source: article PMC7915972
# By UniProt entry, the sequences of proteins in these tests, tags left out.
# UniProt G5E8K5: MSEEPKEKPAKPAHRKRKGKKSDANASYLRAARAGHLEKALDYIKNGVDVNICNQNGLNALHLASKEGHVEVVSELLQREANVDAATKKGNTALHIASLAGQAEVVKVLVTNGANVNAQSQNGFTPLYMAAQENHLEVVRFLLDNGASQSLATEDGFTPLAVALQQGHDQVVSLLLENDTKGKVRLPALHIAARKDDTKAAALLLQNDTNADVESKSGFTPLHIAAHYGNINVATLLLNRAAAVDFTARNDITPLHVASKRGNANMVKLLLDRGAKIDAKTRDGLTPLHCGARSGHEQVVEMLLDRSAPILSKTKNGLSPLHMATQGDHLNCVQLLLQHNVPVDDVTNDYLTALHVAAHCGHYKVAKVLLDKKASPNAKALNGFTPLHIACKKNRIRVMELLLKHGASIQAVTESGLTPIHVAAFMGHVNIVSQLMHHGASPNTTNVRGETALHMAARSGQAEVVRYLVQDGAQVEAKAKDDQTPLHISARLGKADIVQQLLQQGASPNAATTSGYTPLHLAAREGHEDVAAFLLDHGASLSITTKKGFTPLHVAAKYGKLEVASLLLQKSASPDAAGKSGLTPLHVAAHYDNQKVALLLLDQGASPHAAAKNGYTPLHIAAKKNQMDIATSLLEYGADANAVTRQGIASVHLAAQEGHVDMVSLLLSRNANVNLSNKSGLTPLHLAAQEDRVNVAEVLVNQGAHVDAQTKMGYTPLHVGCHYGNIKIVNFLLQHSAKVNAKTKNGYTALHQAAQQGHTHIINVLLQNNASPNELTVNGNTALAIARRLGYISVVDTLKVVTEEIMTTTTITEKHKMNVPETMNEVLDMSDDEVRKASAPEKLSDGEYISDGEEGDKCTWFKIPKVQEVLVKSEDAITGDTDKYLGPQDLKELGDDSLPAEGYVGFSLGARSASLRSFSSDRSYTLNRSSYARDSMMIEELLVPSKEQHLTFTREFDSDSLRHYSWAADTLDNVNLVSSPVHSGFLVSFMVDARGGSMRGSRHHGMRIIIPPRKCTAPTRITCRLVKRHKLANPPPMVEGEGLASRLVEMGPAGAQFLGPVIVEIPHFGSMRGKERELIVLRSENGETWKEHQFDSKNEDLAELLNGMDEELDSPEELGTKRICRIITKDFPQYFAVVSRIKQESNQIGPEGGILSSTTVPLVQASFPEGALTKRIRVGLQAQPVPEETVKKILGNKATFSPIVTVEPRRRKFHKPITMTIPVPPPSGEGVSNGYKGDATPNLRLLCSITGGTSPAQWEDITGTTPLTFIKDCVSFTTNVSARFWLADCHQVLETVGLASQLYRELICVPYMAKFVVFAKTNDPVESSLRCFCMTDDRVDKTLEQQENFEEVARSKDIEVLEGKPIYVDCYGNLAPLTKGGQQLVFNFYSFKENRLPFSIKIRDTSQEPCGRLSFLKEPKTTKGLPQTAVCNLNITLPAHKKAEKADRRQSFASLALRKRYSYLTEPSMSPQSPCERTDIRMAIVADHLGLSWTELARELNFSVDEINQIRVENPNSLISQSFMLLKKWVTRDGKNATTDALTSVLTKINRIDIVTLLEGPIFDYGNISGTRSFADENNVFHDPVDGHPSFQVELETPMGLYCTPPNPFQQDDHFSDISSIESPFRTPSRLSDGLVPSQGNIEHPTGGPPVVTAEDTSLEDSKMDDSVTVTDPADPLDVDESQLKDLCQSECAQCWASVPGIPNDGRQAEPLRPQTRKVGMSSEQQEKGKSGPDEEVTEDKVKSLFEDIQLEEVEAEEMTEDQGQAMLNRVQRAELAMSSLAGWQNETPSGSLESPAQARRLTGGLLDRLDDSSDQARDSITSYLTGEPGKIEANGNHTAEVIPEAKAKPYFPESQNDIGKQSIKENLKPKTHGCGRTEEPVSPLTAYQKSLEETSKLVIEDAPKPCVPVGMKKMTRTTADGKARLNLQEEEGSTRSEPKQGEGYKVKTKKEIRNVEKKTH
# No constants are given. Whether binding was seen depends on the method and setting. For part of these data: Binding seen in cells or lysates may run through a third protein. Some entries that bind do so weakly or less than the wild type.
# T1: Anion exchange protein 2 (mouse (endogenous in choroid plexus)) (UniProt P13808)
# T1 sequence: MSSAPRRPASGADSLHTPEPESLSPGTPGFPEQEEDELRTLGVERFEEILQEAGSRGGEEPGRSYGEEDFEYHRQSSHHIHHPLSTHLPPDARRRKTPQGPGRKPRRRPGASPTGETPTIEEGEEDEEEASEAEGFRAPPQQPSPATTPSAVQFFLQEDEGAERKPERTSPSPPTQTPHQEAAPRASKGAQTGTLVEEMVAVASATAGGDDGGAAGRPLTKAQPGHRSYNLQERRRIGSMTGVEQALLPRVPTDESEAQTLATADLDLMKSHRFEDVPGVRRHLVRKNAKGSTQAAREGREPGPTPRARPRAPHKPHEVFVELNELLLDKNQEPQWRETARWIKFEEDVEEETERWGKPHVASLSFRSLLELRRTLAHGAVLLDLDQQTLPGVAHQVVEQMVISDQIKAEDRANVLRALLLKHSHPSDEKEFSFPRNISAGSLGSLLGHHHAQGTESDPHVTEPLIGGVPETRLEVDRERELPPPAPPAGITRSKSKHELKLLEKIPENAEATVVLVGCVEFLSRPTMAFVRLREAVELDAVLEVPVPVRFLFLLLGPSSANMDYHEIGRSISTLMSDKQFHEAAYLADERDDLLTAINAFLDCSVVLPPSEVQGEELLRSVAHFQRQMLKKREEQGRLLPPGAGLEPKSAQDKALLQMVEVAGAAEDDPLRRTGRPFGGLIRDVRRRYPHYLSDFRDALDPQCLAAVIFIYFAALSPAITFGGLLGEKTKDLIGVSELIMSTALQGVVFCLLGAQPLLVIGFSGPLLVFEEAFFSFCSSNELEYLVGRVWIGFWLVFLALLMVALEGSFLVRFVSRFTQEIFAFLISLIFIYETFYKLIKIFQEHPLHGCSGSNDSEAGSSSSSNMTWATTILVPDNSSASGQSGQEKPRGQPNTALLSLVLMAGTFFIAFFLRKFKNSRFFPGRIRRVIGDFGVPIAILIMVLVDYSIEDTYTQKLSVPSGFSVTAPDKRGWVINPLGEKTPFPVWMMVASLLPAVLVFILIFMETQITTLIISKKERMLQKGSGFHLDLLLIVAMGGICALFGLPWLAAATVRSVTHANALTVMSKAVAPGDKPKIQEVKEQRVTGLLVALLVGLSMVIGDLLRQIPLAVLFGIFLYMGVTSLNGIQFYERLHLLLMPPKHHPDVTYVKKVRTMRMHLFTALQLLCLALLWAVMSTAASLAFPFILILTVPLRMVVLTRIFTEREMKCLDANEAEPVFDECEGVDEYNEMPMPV
# T2: Na-K-2Cl cotransporter 1 (Solute carrier family 12 member 2) (mouse (endogenous in choroid plexus)) (UniProt P55012)
# T2 sequence: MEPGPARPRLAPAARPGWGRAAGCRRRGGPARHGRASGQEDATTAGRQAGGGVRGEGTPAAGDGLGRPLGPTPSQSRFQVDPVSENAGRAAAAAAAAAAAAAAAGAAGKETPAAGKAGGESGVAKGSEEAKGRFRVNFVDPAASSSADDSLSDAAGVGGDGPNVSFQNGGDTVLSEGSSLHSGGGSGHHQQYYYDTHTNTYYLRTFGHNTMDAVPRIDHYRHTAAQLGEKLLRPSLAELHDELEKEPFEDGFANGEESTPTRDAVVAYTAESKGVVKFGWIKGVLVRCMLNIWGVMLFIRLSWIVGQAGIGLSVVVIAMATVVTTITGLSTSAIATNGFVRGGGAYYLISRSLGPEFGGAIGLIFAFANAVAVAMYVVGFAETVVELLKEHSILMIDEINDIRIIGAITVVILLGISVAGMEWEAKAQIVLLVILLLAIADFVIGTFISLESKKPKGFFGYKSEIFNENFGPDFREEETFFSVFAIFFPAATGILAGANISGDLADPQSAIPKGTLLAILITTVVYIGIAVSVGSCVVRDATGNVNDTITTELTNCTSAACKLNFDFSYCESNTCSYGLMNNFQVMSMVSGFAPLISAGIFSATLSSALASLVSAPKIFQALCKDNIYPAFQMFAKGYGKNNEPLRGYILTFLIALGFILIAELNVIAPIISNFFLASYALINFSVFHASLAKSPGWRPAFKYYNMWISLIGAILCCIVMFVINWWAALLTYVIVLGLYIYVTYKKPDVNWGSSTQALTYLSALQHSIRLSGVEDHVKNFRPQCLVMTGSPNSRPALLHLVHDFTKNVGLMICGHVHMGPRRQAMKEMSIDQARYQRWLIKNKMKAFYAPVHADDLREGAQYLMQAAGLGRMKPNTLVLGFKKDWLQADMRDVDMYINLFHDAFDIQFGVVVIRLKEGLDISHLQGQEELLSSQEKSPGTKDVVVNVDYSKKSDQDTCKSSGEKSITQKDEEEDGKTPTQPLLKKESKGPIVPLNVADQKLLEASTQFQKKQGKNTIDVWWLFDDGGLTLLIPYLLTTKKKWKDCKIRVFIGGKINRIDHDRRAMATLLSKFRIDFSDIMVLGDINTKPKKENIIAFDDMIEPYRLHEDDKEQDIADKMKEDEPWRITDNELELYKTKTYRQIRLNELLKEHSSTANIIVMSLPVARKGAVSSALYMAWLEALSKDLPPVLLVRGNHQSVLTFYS
# T3: Sodium-driven chloride bicarbonate exchanger (Na-dependent chloride-bicarbonate exchanger) (mouse (endogenous in choroid plexus)) (UniProt Q5DTL9)
# T3 sequence: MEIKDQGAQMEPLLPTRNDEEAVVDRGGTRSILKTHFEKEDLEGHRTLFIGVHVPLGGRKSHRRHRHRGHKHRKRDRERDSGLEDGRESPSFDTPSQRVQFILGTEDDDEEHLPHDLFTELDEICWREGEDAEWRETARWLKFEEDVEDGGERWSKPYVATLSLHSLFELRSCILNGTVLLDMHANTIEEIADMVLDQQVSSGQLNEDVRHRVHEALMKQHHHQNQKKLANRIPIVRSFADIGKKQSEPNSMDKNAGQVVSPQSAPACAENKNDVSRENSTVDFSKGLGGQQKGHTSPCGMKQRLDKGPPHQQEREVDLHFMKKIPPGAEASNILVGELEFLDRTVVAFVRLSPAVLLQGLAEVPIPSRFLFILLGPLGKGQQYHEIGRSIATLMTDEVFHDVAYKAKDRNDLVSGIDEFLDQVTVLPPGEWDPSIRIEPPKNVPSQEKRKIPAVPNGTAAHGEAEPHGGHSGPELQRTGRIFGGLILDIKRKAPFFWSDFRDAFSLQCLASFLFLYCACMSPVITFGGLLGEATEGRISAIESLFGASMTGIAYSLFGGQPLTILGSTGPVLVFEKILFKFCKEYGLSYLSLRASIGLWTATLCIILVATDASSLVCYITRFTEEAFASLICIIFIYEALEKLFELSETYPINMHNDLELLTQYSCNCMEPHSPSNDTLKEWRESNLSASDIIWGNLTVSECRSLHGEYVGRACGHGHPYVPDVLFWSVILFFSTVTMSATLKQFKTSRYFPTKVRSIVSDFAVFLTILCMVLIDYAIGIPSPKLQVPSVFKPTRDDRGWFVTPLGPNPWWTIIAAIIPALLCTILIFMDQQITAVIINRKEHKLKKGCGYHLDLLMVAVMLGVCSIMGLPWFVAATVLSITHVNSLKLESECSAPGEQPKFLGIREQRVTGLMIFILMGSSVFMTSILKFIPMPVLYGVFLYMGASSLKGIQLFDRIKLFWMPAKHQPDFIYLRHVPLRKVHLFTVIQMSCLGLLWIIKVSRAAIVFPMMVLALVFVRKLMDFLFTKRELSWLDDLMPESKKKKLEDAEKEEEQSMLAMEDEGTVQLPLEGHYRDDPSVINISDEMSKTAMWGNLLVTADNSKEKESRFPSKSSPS
# B1: Anion exchange protein 2 (protein, UniProt P13808 1-1237)
# chain: T1 sequence
# Key:
# [1] = target: Ankyrin-3 (mouse (endogenous in choroid plexus)) (UniProt G5E8K5); assay: proximity ligation; Duolink PLA with pairs of primary antibodies on paraformaldehyde-fixed paraffin sections of mouse brain (choroid plexus epithelium)
# [2] = target: T1, Anion exchange protein 2 (mouse (endogenous in choroid plexus)); assay: native gel or EMSA; mouse choroid plexus homogenate, 1% digitonin, soluble proteins on 3–12% NativePAGE gels, 150 V, 1 h, 4 °C; Coomassie bands cut out for mass spectrometry, and immunoblots of native gels; co-migration
# [3] = target: T2, Na-K-2Cl cotransporter 1 (Solute carrier family 12 member 2) (mouse (endogenous in choroid plexus)); assay: as above
# [4] = target: T3, Sodium-driven chloride bicarbonate exchanger (Na-dependent chloride-bicarbonate exchanger) (mouse (endogenous in choroid plexus)); assay: as above
# [5] = target: T2, Na-K-2Cl cotransporter 1 (Solute carrier family 12 member 2) (mouse (endogenous in choroid plexus)); assay: proximity ligation; Duolink PLA with pairs of primary antibodies on paraformaldehyde-fixed paraffin sections of mouse brain (choroid plexus epithelium)
Molecule,binding [1],binding [2],binding [3],binding [4],binding [5]
"Spectrin alpha chain, non-erythrocytic 1 (from UniProt P16546 1-2472)",binds weakly,binds,binds,binds,–
B1,–,–,binds,–,binds
